# Data: the supplement of paper PMC8728848
# Some of the results follow.
# B1: EULS2 M1 (Oryza sativa) (protein)
# chain: MVYCRANPNYAMTARNGAVVLAPANPKDEYQHWIKDMRWSTSIKDEEGYPAFALVNKATGQAIKHSLGQSHPVRLVPYNPEVMDESVLWTESRDVGNGFRCIRMVNNIYLNFDAFHGDKYHGGVRDGTDIVLWKLCEGDNQRWKIQPYYILEQKLISEEDLNSAVDHHHHHH
# Tests used:
# Experiment in all cases: glycan array binding signal (z-score within array); higher = stronger binding
# Conditions in all cases: glycan notation: IUPAC condensed, linker removed
# [1] = biological target: Neu5Ac(a2-6)Gal(b1-4)GlcNAc(b1-6)[Gal(b1-3)]GalNAc
# Procedure, shortened: (§1)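 Arrays were curated from the Consortium for Functional Glycomics database, 3228 in total, and kept only where the protein sequence was available. Binding is expressed as a within-array Z-score. This score was averaged across arrays of the same protein sequence at different concentrations or buffers and across linkers, and negative values can be read as non-binding.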
# [2] = biological target: Neu5Ac(a2-6)Gal(b1-4)GlcNAc6S
# Procedure, shortened: as §1
# Neu5Ac(a2-6)GalNAc = biological target: Neu5Ac(a2-6)GalNAc
# Procedure, shortened: as §1
# [3] = biological target: Neu5Ac(a2-6)GalNAc(b1-4)GlcNAc
# Procedure, shortened: as §1
# [4] = biological target: Neu5Ac(a2-6)GalNAc(b1-4)GlcNAc6S
# Procedure, shortened: as §1
# [5] = biological target: Neu5Ac(a2-6)GlcNAc(b1-4)GlcNAc
# Procedure, shortened: as §1
# [6] = biological target: Neu5Ac(a2-6)GlcNAc(b1-4)GlcNAc(b1-4)GlcNAc
# Procedure, shortened: as §1
# Neu5Ac(a2-8)Neu5Ac = biological target: Neu5Ac(a2-8)Neu5Ac
# Procedure, shortened: as §1
# [7] = biological target: Neu5Ac(a2-8)Neu5Ac(a2-3)Gal(b1-3)GalNAc(b1-4)[Neu5Ac(a2-3)]Gal(b1-4)Glc
# Procedure, shortened: as §1
# [8] = biological target: Neu5Ac(a2-8)Neu5Ac(a2-3)Gal(b1-3)GalNAc(b1-4)[Neu5Ac(a2-8)Neu5Ac(a2-3)]Gal(b1-4)Glc
# Procedure, shortened: as §1
# [9] = biological target: Neu5Ac(a2-8)Neu5Ac(a2-3)Gal(b1-4)Glc
# Procedure, shortened: as §1
# [10] = biological target: Neu5Ac(a2-8)Neu5Ac(a2-3)Gal(b1-4)GlcNAc
# Procedure, shortened: as §1
# [11] = biological target: Neu5Ac(a2-8)Neu5Ac(a2-3)[Gal(b1-3)GalNAc(b1-4)]Gal(b1-4)Glc
# Procedure, shortened: as §1
# [12] = biological target: Neu5Ac(a2-8)Neu5Ac(a2-3)[GalNAc(b1-4)]Gal(b1-4)Glc
# Procedure, shortened: as §1
# [13] = biological target: Neu5Ac(a2-8)Neu5Ac(a2-8)Neu5Ac
# Procedure, shortened: as §1
# [14] = biological target: Neu5Ac(a2-8)Neu5Ac(a2-8)Neu5Ac(a2-3)Gal(b1-4)Glc
# Procedure, shortened: as §1
# [15] = biological target: Neu5Ac(a2-8)Neu5Ac(a2-8)Neu5Ac(a2-3)[Gal(b1-3)GalNAc(b1-4)]Gal(b1-4)Glc
# Procedure, shortened: as §1
# [16] = biological target: Neu5Ac(a2-8)Neu5Ac(a2-8)Neu5Ac(a2-3)[GalNAc(b1-4)]Gal(b1-4)Glc
# Procedure, shortened: as §1
# [17] = biological target: Neu5Ac(a2-8)Neu5Ac(a2-8)Neu5Ac(a2-8)Neu5Ac(a2-3)[GalNAc(b1-4)]Gal(b1-4)Glc
# Procedure, shortened: as §1
# [18] = biological target: Neu5Ac(a2-8)Neu5Gc(a2-3)Gal(b1-4)GlcNAc
# Procedure, shortened: as §1
# [19] = biological target: Neu5Ac(b2-6)Gal(b1-4)GlcNAc
# Procedure, shortened: as §1
# Neu5Ac(b2-6)GalNAc = biological target: Neu5Ac(b2-6)GalNAc
# Procedure, shortened: as §1
# [20] = biological target: Neu5Ac9Ac(a2-3)Gal(b1-3)GlcNAc
# Procedure, shortened: as §1
# [21] = biological target: Neu5Ac9Ac(a2-3)Gal(b1-4)GlcNAc
# Procedure, shortened: as §1
# [22] = biological target: Neu5Ac9Ac(a2-6)Gal(b1-4)GlcNAc
# Procedure, shortened: as §1
# [23] = biological target: Neu5Gc(a2-3)Gal(b1-3)GlcNAc
# Procedure, shortened: as §1
# [24] = biological target: Neu5Gc(a2-3)Gal(b1-3)[Fuc(a1-4)]GlcNAc
# Procedure, shortened: as §1
# Neu5Gc(a2-3)Gal(b1-4)Glc = biological target: Neu5Gc(a2-3)Gal(b1-4)Glc
# Procedure, shortened: as §1
# [25] = biological target: Neu5Gc(a2-3)Gal(b1-4)GlcNAc
# Procedure, shortened: as §1
# [26] = biological target: Neu5Gc(a2-3)Gal(b1-4)GlcNAc(b1-3)Gal(b1-4)GlcNAc(b1-2)Man(a1-3)[Neu5Gc(a2-3)Gal(b1-4)GlcNAc(b1-3)Gal(b1-4)GlcNAc(b1-2)Man(a1-6)]Man(b1-4)GlcNAc(b1-4)GlcNAc
# Procedure, shortened: as §1
# [27] = biological target: Neu5Gc(a2-3)Gal(b1-4)[Fuc(a1-3)]GlcNAc
# Procedure, shortened: as §1
# [28] = biological target: Neu5Gc(a2-6)Gal(b1-4)GlcNAc
# Procedure, shortened: as §1
# Neu5Gc(a2-6)GalNAc = biological target: Neu5Gc(a2-6)GalNAc
# Procedure, shortened: as §1
# [29] = biological target: Neu5Gc(a2-8)Neu5Ac(a2-3)Gal(b1-4)GlcNAc
# Procedure, shortened: as §1
# [30] = biological target: Neu5Gc(a2-8)Neu5Gc(a2-3)Gal(b1-4)GlcNAc
# Procedure, shortened: as §1
# [31] = biological target: Neu5Gc(a2-8)Neu5Gc(a2-3)Gal(b1-4)GlcNAc(b1-3)Gal(b1-4)GlcNAc
# Procedure, shortened: as §1
# [32] = biological target: Neu5Gc(a2-8)Neu5Gc(a2-6)Gal(b1-4)GlcNAc
# Procedure, shortened: as §1
# [33] = biological target: Neu5Gc(b2-6)Gal(b1-4)GlcNAc
# Procedure, shortened: as §1
binder,measurement,setting,value
B1,glycan array binding signal (z-score),[1],-0.14
same,glycan array binding signal (z-score),[2],-0.304
same,glycan array binding signal (z-score),Neu5Ac(a2-6)GalNAc,0.134
same,glycan array binding signal (z-score),[3],-0.931
same,glycan array binding signal (z-score),[4],-0.235
same,glycan array binding signal (z-score),[5],-0.384
same,glycan array binding signal (z-score),[6],-0.703
same,glycan array binding signal (z-score),Neu5Ac(a2-8)Neu5Ac,0.028
same,glycan array binding signal (z-score),[7],-1
same,glycan array binding signal (z-score),[8],-0.301
same,glycan array binding signal (z-score),[9],-0.26
same,glycan array binding signal (z-score),[10],0.305
same,glycan array binding signal (z-score),[11],-0.358
same,glycan array binding signal (z-score),[12],-0.536
same,glycan array binding signal (z-score),[13],-0.565
same,glycan array binding signal (z-score),[14],-0.186
same,glycan array binding signal (z-score),[15],0.315
same,glycan array binding signal (z-score),[16],-0.743
same,glycan array binding signal (z-score),[17],-0.548
same,glycan array binding signal (z-score),[18],-0.088
same,glycan array binding signal (z-score),[19],0.277
same,glycan array binding signal (z-score),Neu5Ac(b2-6)GalNAc,-0.154
same,glycan array binding signal (z-score),[20],-1.07
same,glycan array binding signal (z-score),[21],0.043
same,glycan array binding signal (z-score),[22],-0.126
same,glycan array binding signal (z-score),[23],-0.924
same,glycan array binding signal (z-score),[24],-0.113
same,glycan array binding signal (z-score),Neu5Gc(a2-3)Gal(b1-4)Glc,1.04
same,glycan array binding signal (z-score),[25],-1.3
same,glycan array binding signal (z-score),[26],0.315
same,glycan array binding signal (z-score),[27],-0.714
same,glycan array binding signal (z-score),[28],0.007
same,glycan array binding signal (z-score),Neu5Gc(a2-6)GalNAc,-0.307
same,glycan array binding signal (z-score),[29],-0.41
same,glycan array binding signal (z-score),[30],-0.547
same,glycan array binding signal (z-score),[31],-0.26
same,glycan array binding signal (z-score),[32],-0.158
same,glycan array binding signal (z-score),[33],-0.393

# A second format for some results above.
binder | measurement | setting | value
B1 | glycan array binding signal (z-score) | [4] | -0.235
same | glycan array binding signal (z-score) | [18] | -0.088
same | glycan array binding signal (z-score) | [26] | 0.315
